# Assay results: the supplement of paper PMC11006884
# Chains of the proteins cited; added tags and fusions are not shown. Lines headed by an entry give the natural chain unless they say otherwise; changes in a name come on top.
# UniProt P26639: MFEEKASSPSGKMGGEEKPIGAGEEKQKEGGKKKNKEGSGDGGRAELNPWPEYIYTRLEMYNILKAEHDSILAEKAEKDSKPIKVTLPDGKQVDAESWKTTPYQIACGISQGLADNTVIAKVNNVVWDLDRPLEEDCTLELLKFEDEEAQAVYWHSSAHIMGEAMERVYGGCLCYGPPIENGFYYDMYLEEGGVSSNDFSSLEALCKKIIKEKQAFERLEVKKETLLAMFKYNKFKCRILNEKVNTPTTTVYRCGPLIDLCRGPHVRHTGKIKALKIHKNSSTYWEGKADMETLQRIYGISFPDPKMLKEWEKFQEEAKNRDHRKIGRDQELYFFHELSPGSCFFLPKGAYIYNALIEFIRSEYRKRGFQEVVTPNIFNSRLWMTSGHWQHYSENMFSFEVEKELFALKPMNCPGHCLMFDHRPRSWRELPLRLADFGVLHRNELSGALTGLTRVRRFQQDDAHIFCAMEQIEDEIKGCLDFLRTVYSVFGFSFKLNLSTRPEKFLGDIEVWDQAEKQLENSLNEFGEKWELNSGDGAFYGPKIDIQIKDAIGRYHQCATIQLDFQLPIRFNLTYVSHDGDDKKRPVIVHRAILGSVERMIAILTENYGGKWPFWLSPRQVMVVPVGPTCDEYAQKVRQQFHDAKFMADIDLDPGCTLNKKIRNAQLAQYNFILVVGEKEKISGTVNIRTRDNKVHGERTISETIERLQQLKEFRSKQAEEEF
# UniProt P30044: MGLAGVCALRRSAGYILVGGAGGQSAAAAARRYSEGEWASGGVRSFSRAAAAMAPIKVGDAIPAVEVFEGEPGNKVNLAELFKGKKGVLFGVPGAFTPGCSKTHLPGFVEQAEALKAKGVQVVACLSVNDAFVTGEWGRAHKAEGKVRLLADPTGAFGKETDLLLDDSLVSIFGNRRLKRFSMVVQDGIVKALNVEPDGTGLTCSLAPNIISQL
# UniProt P27348: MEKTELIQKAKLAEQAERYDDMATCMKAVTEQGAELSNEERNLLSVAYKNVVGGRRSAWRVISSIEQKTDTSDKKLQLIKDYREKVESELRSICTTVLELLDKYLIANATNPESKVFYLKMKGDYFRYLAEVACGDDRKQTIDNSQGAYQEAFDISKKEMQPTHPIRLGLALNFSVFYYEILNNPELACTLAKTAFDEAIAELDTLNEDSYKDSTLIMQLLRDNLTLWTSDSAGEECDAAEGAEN
# UniProt P22307: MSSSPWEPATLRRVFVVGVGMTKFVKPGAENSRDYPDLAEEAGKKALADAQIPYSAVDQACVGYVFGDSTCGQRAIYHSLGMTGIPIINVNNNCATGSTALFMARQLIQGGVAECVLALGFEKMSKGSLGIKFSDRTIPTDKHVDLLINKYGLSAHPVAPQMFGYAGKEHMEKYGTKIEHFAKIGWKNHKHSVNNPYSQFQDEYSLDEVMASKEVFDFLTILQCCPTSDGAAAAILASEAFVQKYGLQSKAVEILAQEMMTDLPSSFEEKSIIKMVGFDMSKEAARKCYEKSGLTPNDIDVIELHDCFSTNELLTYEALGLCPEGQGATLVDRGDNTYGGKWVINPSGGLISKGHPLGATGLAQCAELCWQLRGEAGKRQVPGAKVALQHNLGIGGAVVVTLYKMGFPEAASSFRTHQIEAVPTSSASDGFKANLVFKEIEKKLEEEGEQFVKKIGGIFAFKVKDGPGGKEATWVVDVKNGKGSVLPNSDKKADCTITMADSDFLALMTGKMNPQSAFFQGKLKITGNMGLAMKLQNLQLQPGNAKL
# UniProt P28482, whole entry, looked up: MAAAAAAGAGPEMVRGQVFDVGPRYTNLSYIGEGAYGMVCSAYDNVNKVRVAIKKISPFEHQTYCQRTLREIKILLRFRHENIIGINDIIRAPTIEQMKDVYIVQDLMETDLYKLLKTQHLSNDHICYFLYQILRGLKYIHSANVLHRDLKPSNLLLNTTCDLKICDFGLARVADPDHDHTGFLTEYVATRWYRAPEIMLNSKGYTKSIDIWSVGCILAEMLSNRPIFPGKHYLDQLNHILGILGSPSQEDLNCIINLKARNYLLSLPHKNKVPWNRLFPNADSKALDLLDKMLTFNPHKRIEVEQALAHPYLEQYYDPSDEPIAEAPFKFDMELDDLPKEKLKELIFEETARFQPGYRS
# UniProt P22102: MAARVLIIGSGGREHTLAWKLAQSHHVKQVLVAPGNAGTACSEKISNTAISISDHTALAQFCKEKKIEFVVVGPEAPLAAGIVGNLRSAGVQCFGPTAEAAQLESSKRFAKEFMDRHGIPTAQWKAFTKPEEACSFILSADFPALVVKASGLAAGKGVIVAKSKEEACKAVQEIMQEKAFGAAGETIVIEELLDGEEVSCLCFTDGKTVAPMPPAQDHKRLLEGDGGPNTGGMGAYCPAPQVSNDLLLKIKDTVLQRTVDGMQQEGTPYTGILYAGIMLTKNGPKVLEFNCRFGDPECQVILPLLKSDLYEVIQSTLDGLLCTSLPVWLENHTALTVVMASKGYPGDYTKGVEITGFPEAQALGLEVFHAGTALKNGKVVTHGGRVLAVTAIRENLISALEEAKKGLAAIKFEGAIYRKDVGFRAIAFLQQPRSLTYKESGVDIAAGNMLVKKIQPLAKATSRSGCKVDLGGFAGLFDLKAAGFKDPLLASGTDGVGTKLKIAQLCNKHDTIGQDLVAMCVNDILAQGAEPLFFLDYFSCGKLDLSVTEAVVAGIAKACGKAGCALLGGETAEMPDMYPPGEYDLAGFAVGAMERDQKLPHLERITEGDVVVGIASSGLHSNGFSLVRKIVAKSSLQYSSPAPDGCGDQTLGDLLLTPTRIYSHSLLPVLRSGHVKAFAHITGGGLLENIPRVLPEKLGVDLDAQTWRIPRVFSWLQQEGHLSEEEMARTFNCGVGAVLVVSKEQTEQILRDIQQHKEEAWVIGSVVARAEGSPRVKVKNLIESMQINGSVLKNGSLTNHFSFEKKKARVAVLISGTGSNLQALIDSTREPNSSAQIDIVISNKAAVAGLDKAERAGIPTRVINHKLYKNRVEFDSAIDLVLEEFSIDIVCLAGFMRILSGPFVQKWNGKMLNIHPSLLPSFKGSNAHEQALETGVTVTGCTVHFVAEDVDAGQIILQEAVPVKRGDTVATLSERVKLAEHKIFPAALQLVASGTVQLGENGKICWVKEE
# UniProt P23258, whole entry, looked up: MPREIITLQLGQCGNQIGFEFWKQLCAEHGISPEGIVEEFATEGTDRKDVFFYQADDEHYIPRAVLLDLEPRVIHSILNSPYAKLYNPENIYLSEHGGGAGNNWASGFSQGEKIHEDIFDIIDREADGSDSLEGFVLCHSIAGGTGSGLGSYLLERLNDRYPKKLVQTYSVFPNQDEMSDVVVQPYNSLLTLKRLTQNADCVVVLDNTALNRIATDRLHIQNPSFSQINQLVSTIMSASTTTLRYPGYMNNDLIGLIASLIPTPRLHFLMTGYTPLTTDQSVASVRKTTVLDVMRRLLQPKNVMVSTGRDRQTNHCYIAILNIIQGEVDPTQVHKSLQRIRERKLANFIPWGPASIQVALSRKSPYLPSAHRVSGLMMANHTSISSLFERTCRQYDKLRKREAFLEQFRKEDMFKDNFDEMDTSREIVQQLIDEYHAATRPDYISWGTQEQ
# UniProt P22234: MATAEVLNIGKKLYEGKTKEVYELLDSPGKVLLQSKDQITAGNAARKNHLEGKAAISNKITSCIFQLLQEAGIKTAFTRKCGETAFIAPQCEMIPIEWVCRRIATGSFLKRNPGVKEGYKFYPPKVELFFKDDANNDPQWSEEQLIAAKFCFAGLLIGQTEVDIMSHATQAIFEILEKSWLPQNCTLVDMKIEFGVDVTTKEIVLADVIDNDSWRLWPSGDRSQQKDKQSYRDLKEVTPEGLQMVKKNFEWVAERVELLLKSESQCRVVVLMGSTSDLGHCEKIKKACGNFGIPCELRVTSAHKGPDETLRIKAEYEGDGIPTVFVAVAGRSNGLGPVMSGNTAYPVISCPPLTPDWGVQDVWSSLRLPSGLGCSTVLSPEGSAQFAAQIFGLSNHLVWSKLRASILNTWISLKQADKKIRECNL
# UniProt P28340: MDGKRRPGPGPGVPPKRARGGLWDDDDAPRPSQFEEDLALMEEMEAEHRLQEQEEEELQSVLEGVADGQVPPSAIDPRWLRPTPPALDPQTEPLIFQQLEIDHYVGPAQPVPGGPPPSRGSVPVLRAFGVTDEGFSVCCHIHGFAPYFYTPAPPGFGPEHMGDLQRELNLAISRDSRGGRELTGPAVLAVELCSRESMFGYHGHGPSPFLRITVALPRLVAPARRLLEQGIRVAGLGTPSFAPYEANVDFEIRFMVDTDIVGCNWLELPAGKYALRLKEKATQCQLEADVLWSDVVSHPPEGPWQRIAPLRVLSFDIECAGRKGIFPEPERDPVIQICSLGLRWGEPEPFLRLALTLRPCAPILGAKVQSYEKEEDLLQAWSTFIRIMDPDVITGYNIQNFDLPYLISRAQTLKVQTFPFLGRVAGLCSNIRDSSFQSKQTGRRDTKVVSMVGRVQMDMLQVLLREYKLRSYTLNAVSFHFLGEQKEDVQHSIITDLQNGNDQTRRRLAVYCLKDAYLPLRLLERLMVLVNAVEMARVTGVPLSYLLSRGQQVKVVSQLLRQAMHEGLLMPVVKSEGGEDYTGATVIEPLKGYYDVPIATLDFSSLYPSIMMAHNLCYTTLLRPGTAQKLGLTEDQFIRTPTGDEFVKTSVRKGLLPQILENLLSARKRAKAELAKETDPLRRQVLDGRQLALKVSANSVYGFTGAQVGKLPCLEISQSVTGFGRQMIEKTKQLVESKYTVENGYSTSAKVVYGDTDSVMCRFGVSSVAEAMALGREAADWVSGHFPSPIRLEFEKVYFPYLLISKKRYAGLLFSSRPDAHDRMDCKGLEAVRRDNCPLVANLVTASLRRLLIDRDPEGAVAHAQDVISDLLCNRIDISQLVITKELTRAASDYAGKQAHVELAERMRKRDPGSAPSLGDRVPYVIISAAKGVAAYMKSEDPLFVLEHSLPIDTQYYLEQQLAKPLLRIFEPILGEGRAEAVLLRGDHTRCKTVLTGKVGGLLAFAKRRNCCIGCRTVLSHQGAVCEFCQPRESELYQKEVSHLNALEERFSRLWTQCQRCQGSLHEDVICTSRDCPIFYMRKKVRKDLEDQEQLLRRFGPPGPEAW
# UniProt P25786: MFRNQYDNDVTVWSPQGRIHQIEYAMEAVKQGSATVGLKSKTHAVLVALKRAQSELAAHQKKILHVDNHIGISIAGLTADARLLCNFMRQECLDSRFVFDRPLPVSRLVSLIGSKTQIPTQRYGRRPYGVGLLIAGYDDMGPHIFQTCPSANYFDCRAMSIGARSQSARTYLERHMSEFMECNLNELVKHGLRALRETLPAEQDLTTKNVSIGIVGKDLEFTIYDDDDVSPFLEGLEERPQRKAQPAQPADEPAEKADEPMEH
# UniProt P23526: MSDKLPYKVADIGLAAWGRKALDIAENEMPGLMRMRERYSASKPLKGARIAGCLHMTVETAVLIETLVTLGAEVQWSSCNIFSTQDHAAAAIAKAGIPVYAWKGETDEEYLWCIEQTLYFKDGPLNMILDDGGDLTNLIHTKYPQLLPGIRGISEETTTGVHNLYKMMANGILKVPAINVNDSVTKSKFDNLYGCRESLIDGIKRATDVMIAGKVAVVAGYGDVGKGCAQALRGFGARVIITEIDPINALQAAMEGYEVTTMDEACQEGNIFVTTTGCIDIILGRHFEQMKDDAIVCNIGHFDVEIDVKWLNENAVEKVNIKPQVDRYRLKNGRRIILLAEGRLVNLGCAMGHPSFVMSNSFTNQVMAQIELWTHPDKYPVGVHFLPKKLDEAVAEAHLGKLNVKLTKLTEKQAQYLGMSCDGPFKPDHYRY
# UniProt P17987, whole entry, looked up: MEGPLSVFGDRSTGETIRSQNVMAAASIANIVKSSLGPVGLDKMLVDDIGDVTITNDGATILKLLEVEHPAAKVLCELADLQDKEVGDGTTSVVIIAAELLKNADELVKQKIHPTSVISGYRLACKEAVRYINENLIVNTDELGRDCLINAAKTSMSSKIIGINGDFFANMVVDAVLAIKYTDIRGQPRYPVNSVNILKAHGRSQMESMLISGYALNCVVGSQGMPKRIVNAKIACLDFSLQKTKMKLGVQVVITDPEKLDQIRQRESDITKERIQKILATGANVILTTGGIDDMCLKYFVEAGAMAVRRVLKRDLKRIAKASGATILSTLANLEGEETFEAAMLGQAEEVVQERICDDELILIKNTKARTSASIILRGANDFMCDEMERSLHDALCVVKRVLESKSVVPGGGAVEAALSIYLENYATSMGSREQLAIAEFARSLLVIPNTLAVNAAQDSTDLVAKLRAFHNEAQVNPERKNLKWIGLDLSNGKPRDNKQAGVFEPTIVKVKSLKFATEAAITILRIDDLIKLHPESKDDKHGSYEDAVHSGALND
# Only a part is listed here, and it is no random draw.
# Compound: COC(=O)C#Cc1ccccc1 [methyl 3-phenylpropiolate]
# Experiment: log2 ratio of iodoacetamide-alkyne labeling of the cysteine site, DMSO over compound (competition); higher = stronger covalent engagement of the cysteine by the compound, active = 1 or more
# Details: 500 µM; treatment time 1 h; system: HEK293T cell lysate
# Procedure, shortened: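 Electrophile (500 µM) or vehicle was added to HEK293T lysate (2 mg/mL) for 1 h at ambient temperature before iodoacetamide alkyne labelling (1 h) and click coupling to sCIP-TMT reagents. After pooling, overnight trypsin digestion at 37 °C, streptavidin enrichment and acid elution, peptides were measured by Orbitrap Eclipse LC-MS/MS with FAIMS and quantified in FragPipe. Each cysteine's log2 competition ratio compares mean control-channel with mean compound-channel reporter intensity, control over compound. Data came from duplicate channels across three replicates, excluding cysteines quantified in only one replicate.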
row,Target,log2 ratio of iodoacetamide-alkyne labeling
1,GTF2E2 C208 (UniProt P29084),inactive: -0.00699
2,RPS3 C97 (UniProt P23396),active: 2.45
3,UniProt P26639_C343,inactive: 0.143
4,PFKL C170 (UniProt P17858),inactive: 0.343
5,PRDX5 C100 (UniProt P30044),inactive: 0.466
6,YWHAQ C25 (UniProt P27348),inactive: -0.104
7,SCP2 C94 (UniProt P22307),inactive: 0.136
8,UniProt P28482_C161,inactive: 0.079
9,GART C291 (UniProt P22102),inactive: 0.226
10,TUBG1 C201 (UniProt P23258),inactive: 0.173
11,FLNA C2543 (UniProt P21333),inactive: 0.267
12,PAICS C288 (UniProt P22234),inactive: -0.0455
13,POLD1 C837 (UniProt P28340),active: 1.16
14,PSMA1 C182 (UniProt P25786),inactive: 0.0412
15,AHCY C421 (UniProt P23526),inactive: 0.126
16,TCP1 C397 (UniProt P17987),inactive: 0.159

# Retrieved one by one from the entries so far, 2 records:
row,Target,log2 ratio of iodoacetamide-alkyne labeling
9,GART C291 (UniProt P22102),inactive: 0.226
5,PRDX5 C100 (UniProt P30044),inactive: 0.466
